No constants are given. Whether binding was seen depends on the method and setting. Binding seen in cells or lysates may run through a third protein. Some results given as binding are weak or reduced against the parent protein; the word gives no strength.

What all share (assay): co-IP
Experiment [1] deals with HA-tagged EBNA2 H15A mutant (Epstein-Barr virus) (UniProt P12978).
For experiment [2], the target named is HA-tagged EBNA2 α1-helix deletion mutant (Epstein-Barr virus) (UniProt P12978).
In experiment [3] the target is HA-tagged EBNA2 (full-length) (Epstein-Barr virus) (UniProt P12978).

B1: early B cell factor (EBF) 1 (protein, UniProt Q9UH73 1-591)
chain: MFGIQESIQRSGSSMKEEPLGSGMNAVRTWMQGAGVLDANTAAQSGVGLARAHFEKQPPSNLRKSNFFHFVLALYDRQGQPVEIERTAFVGFVEKEKEANSEKTNNGIHYRLQLLYSNGIRTEQDFYVRLIDSMTKQAIVYEGQDKNPEMCRVLLTHEIMCSRCCDKKSCGNRNETPSDPVIIDRFFLKFFLKCNQNCLKNAGNPRDMRRFQVVVSTTVNVDGHVLAVSDNMFVHNNSKHGRRARRLDPSEGTPSYLEHATPCIKAISPSEGWTTGGATVIIIGDNFFDGLQVIFGTMLVWSELITPHAIRVQTPPRHIPGVVEVTLSYKSKQFCKGTPGRFIYTALNEPTIDYGFQRLQKVIPRHPGDPERLPKEVILKRAADLVEALYGMPHNNQEIILKRAADIAEALYSVPRNHNQLPALANTSVHAGMMGVNSFSGQLAVNVSEASQATNQGFTRNSSSVSPHGYVPSTTPQQTNYNSVTTSMNGYGSAAMSNLGGSPTFLNGSAANSPYAIVPSSPTMASSTSLPSNCSSSSGIFSFSPANMVSAVKQKSAFAPVVRPQTSPPPTCTSTNGNSLQAISGMIVPPM
In the case of B1, the binding entry in experiment [1] is recorded as “binds”; in experiment [2], “no binding”; in experiment [3], “binds”.

The values above are taken from doi:10.1101/2021.12.29.474426.
